Data on one compound can be found in patent US11976092B2, “RNA nanostructures, methods of making, and uses thereof” (Ohio State Innovation Foundation, priority 2018, dated 2024).

For data set [1] the following is noted: 1 mM in DEPC H2O.
The conditions of data set [2]: cited from earlier work.

Each structure is given as a SMILES string. In brackets after ≈: the same amount, converted by molar mass.

Turning to `CC(=O)O[C@H]1C(=O)[C@@]2(C)[C@H]([C@H](OC(=O)c3ccccc3)[C@]3(O)C[C@H](OC(=O)[C@H](O)[C@@H](NC(=O)c4ccccc4)c4ccccc4)C(C)=C1C3(C)C)[C@]1(OC(C)=O)CO[C@@H]1C[C@@H]2O` [Paclitaxel], the “appearance of solution (water solubility)” value in data set [1] was “cloudy solution”. Also, the water solubility in data set [2] was around 0.4 µg/mL (≈ 0.468 µM).
